The results are deposited in PubChem (AID912; NCATS, 2007).

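A cell-based FRET test of anthrax lethal toxin entry, tracked through the 460 nm emission signal; the cell line is not named here. Each compound was tested as a concentration series from about 0.0005 to 40 µM. The number is the fitted AC50 of the 460 nm signal alone; lower values mean a more potent effect. A falling signal goes with compounds filed as inhibitors or cytotoxic, a rising one with activators or fluorescent compounds (inferred from the filed classes).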

Values are in µM. Common to all entries: measured here: 460 nm channel. This is a side read-out of the assay, for part of the compounds, not drawn at random. A potency from a partial, single-point or poor curve is only a rough figure. The first word of each remark tells which way the curve ran; it can be opposite to the aim of the assay.

SMILES,AC50 (µM),curve
COC(=O)CSc1nnc(-c2sc3cc(OC)ccc3c2Cl)n1C,25.12,"rising, single point"
CCC1SC(=NC(=O)c2ccc(Cl)c(Cl)c2)NC1=O (stereo not drawn),6.31,"rising, partial curve"
CN1CSC2=C(C#N)C(c3cccc(OCc4ccccc4)c3)CC(=O)N2C1 (stereo not drawn),15.85,"falling, partial curve"
O=C(CCCN1C(=O)c2ccccc2C1=O)Nc1nncs1,0.01,"falling, full curve, poor fit"
COc1ccc(Cn2c(CCC(=O)NCc3ccco3)nc3cccnc32)cc1,0.01,"falling, full curve, poor fit"
COc1ccc(C)cc1NC(=O)c1cc2c(CO)cnc(C)c2oc1=N,19.95,"rising, single point"
Clc1cc(Cl)c(-c2cc(Cl)c(Cl)cc2Cl)cc1Cl,5.012,"falling, full curve"
CCOc1ccc(-c2nc(-c3ccccc3)no2)cc1OCC,3.162,"falling, partial curve"
Cc1cc(C)c2c(n1)nn1c(N3CCN(c4ccccn4)CC3)cc(C)nc21,19.95,"rising, single point"
COCc1cc(C)nc(SCC(=O)Nc2cccc3cccnc23)c1C#N,10,"falling, partial curve"
Nc1c(C(=O)NC2CCCC2)c2nc3ccccc3nc2n1N,0.01,"falling, full curve, poor fit"
CCCCN(CC)CCNC(=O)CN(C)S(=O)(=O)c1ccc2c(c1)c(=O)n(C)c(=O)n2C,25.12,"rising, single point"
CCN1CC=C2C(C1)C(c1ccc(Cl)s1)C(C#N)=C(N)C2(C#N)C#N (stereo not drawn),6.31,"rising, partial curve"
CCOC(=O)N1CC=C2C(C#N)=C(N)C(C#N)(C#N)[C@H](c3ccc(OC(C)C)c(OCC)c3)[C@H]2C1,12.59,"rising, single point"
Cc1nccc2c1[nH]c1ccccc12,25.12,"falling, single point"
C=CCn1c(N)c(C(=O)OCCC)c2nc3ccccc3nc21,10,"rising, partial curve"
N#CC(C#N)=NNc1ccc(OC(F)(F)F)cc1,0.5012,"falling, full curve"
COc1ccc(C)cc1Cn1c(S(C)(=O)=O)nc2ccccc21,0.1585,"falling, full curve, poor fit"
O=C(Nc1ccc(Cl)cc1)N(Cc1cccnc1)Cc1ccco1,2.512,"rising, partial curve"
C[C@H]1CCCC=CC2C[C@H](OC(=O)CN(C)C)C[C@@H]2[C@@H](O)/C=C\C(=O)O1 (stereo partly drawn),1,"falling, full curve"
CN(C)Cc1ccccc1-c1nccc(N(C)Cc2ccco2)n1,3.981,"falling, partial curve"
Cc1nc(N=Nc2ccc(C(=O)O)cc2)c(COP(=O)(O)O)c(C=O)c1O,12.59,"rising, partial curve, poor fit"
N[C@H](CCCP(=O)(O)O)C(=O)O,0.002512,"rising, full curve, poor fit"
CSc1nc2ccc(Nc3nc(N4CCOCC4)nc(N4CCOCC4)n3)cc2s1,5.012,"falling, partial curve, poor fit"
CC(=O)N(Cc1cc(=O)[nH]c2ccccc12)c1cccc(C)c1,3.981,"falling, single point"
C=CCn1c(SCC(=O)NCc2ccco2)nnc1-c1ccc2ccccc2n1,0.0631,"falling, full curve, poor fit"
COC(=O)C1=C(N)Oc2c(c(=O)oc3ccccc23)[C@]12C(=O)N(C)c1ccccc12,10,"rising, partial curve, poor fit"
Cc1nc2sccn2c(=O)c1CCN1CCC(=C(c2ccc(F)cc2)c2ccc(F)cc2)CC1,31.62,"falling, single point"
COc1cccc(-c2nccc(NCc3cnc(C)cn3)n2)c1,5.012,"rising, single point"
COc1cccc(OC)c1C1=NCC(=O)Nc2c1oc1ccc(Br)cc21,1.585,"falling, partial curve"
CCNc1ccc(C(=O)OCC)cc1NC(=O)c1cccc(S(=O)(=O)N2CCOCC2)c1,0.02512,"rising, full curve, poor fit"
O=C(c1ccco1)N1CCN(c2ccc(S(=O)(=O)N3CCCC3)cc2)CC1,10,"rising, partial curve, poor fit"
CN1CCC2(CC1)CCN(C(=O)c1cccc(F)c1)CC2,3.162,"falling, partial curve"
O=c1c(-c2cccc(Cl)c2)nc2cncnc2n1Cc1ccccc1Cl,19.95,"rising, single point"
Cc1ccc2c(c1)NC(=O)C(CC(=O)NCCCN1CCN(c3cc(Cl)ccc3C)CC1)O2 (stereo not drawn),10,"falling, single point"
Cc1cc(C)cc(OCC(=O)Nc2ccc(N3CCN(S(C)(=O)=O)CC3)cc2)c1,5.012,"rising, partial curve"
COc1ccc2c(c1)C(=O)N(c1ccccc1OC)C(=O)C2,0.0631,"rising, full curve, poor fit"
O=C(CCn1nnc(-c2cccs2)n1)NCc1ccccc1Cl,1.995,"rising, partial curve"
O=S(CC(O)COCc1ccc(Cl)cc1)c1ccccn1 (stereo not drawn),0.01,"falling, full curve, poor fit"
O=C1CC(/C=C/c2ccco2)=Nc2ccccc2N1,25.12,"falling, single point"
COc1ccc(C(=O)N2CCC3(CCN(Cc4ccccc4OC)CC3)CC2)cc1,15.85,"falling, partial curve"
COc1ccccc1NC(=O)c1ccc(NS(=O)(=O)c2c(C)noc2C)cc1,6.31,"falling, partial curve"
O=S(=O)(c1ccc(Br)s1)N1CCc2ccccc2C1,5.012,"rising, single point"
COc1cc2cc(C(=O)Nc3ccccc3)c(N)nc2cc1OC,3.981,"rising, partial curve"
O=C(Nc1nc2ccccc2n1CCOc1ccc(Cl)cc1)c1ccco1,1.585,"falling, partial curve"
CC(C)N(Cc1nc(-c2ccc(Cl)cc2)no1)C(=O)CCC1CCCC1,12.59,"falling, single point"
CCCn1c(=O)c(C)cn2nc(N)nc12,12.59,"falling, single point"
CC(C)Oc1ccc2c3c(c(=O)oc2c1)CCC3,31.62,"falling, single point"
CC1CCN(Cc2nc3c(c(=O)n(C)c(=O)n3C)n2CCCc2ccccc2)CC1,0.02512,"falling, full curve, poor fit"
C#CCSc1nsc(SCC#C)c1C#N,6.31,"falling, partial curve"
COc1ccc(CNc2ncnc3ccc(-c4c(C)noc4C)cc23)c(OC)c1,12.59,"rising, single point"
O=C1CCN(S(=O)(=O)c2ccccc2)C2CCCCC12 (stereo not drawn),1.259,"falling, full curve"
COc1ccc(-c2noc(COc3ccc4ccccc4c3Br)n2)cc1OC,5.012,"falling, single point"
O=C(CN1C(=O)c2cccc3cccc1c23)Nc1ccccc1C(=O)NCc1ccco1,0.7943,"rising, full curve, poor fit"
CS(=O)(=O)CCNCc1nc(-c2ccc3ncnc(Nc4ccc(OCc5cccc(F)c5)c(Cl)c4)c3c2)cs1,25.12,"rising, single point"

Repeated from the top, 5 entries:

With COC(=O)CSc1nnc(-c2sc3cc(OC)ccc3c2Cl)n1C the assay gave AC50 25.12 µM (rising, single point).
With CCC1SC(=NC(=O)c2ccc(Cl)c(Cl)c2)NC1=O (stereo not drawn) the assay gave AC50 6.31 µM (rising, partial curve).
With CN1CSC2=C(C#N)C(c3cccc(OCc4ccccc4)c3)CC(=O)N2C1 (stereo not drawn) the assay gave AC50 15.85 µM (falling, partial curve).
With O=C(CCCN1C(=O)c2ccccc2C1=O)Nc1nncs1 the assay gave AC50 0.01 µM (falling, full curve, poor fit).
With COc1ccc(Cn2c(CCC(=O)NCc3ccco3)nc3cccnc32)cc1 the assay gave AC50 0.01 µM (falling, full curve, poor fit).